Measurements: paper PMC6728299
No constants are given. Whether binding was seen depends on the method and setting. Binding seen in cells or lysates may run through a third protein. Some results given as binding are weak or reduced against the parent protein; the word gives no strength.

Chains of the proteins cited; added tags and fusions are not shown. Lines headed by an entry give the natural chain unless they say otherwise; changes in a name come on top. A line that says so, or that is headed by a name, gives the form on record, which may keep a tag or linker.
UniProt P61169: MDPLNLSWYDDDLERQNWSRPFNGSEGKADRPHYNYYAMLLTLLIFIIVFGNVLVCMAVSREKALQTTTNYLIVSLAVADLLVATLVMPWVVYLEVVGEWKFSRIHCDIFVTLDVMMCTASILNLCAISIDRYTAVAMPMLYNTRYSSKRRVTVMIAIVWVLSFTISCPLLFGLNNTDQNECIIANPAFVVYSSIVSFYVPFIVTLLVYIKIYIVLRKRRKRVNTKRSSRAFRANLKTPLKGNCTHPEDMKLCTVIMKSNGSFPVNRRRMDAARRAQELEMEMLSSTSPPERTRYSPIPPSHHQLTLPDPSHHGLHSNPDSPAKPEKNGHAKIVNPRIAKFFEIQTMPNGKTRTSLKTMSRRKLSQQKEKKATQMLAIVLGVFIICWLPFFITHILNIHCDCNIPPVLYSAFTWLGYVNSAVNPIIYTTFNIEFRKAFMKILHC
UniProt P14416: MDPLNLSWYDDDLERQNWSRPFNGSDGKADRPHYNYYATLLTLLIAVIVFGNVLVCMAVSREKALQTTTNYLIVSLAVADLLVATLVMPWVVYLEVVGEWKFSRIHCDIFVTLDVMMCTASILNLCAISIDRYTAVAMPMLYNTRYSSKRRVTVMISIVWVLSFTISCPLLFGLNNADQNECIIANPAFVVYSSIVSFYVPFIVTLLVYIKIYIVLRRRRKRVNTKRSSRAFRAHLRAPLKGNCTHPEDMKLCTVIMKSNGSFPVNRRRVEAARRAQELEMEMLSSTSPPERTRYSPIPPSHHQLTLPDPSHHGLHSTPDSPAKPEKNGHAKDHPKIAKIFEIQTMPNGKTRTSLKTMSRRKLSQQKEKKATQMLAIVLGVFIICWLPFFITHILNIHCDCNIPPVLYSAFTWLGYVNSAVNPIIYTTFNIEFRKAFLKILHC
dopamine D2 receptor short isoform fused to Renilla luciferase (D2SR^Rluc) (P14416, form named): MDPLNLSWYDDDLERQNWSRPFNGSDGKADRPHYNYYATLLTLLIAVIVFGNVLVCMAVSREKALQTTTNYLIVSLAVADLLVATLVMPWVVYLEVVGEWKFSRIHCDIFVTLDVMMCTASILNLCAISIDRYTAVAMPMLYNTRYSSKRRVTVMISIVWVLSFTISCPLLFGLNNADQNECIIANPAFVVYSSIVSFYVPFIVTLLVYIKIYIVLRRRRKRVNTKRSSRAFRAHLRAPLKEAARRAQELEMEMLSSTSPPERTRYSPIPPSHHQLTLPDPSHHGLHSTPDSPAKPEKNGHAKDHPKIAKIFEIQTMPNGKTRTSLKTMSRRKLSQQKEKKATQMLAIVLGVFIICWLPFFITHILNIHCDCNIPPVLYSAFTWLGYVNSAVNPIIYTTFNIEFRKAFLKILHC
UniProt Q9R0C9: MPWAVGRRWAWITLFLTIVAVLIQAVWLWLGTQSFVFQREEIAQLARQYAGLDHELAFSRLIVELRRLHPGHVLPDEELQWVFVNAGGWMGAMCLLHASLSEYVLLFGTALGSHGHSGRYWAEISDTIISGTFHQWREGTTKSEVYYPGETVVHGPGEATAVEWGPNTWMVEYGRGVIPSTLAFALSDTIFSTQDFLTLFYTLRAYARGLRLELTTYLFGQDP
UniProt Q99720: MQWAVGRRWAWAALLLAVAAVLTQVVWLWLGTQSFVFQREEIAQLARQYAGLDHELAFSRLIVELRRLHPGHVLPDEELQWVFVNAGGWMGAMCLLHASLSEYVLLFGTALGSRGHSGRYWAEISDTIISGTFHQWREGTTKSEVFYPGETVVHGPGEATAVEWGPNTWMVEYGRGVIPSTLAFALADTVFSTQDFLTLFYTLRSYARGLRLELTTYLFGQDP

Key:
[1] = biological target: dopamine D2 receptor (D2R), endogenous in rat brain (rat (endogenous in brain sections)) (UniProt P61169); assay: proximity ligation; in situ PLA on free-floating formalin-fixed rat brain sections (30 μm, Bregma 1.0 mm); mouse anti-D2R and rabbit anti-sigma1R primary antibodies; control with only one primary antibody
[2] = biological target: dopamine D2 receptor long isoform fused to Renilla luciferase (D2LR^Rluc) (UniProt P14416); assay: FRET or BRET; BRET2 competition in HEK293T cells; constant (1 μg) D2LR^Rluc and δ1R^GFP2 plasmids, increasing (0.1-8 μg) plasmid of untagged wild-type D2LR, D2SR or δ1R
[3] = biological target: dopamine D2 receptor long isoform fused to Renilla luciferase (D2LR^Rluc) (UniProt P14416); assay: FRET or BRET; BRET2 saturation in HEK293T cells 48 h after transfection; constant (1 μg) D2R^Rluc plasmid, increasing (0.12-5 μg) δ1R^GFP2 plasmid; coelenterazine-400a 5 μM; cell suspension in PBS
[4] = biological target: dopamine D2 receptor short isoform fused to Renilla luciferase (D2SR^Rluc) (UniProt P14416); assay: as above

| Substance | binding [1] | binding [2] | binding [3] | binding [4] |
| --- | --- | --- | --- | --- |
| sigma 1 receptor (δ1R), endogenous in rat brain (from UniProt Q9R0C9 1-223) | binds |  |  |  |
| sigma 1 receptor fused to GFP2 (δ1R^GFP2) (from UniProt Q99720 1-223) |  | binds | binds | binds |
